Experimental data taken from patent US20200291121A1.
No constants are given. Whether binding was seen depends on the method and setting.

Target: rabbit IL-5Rα, recombinant extracellular domain (rabbit)
Experiment: BLI (Octet RED 384), antibody immobilised on AR2G sensors, antigen in solution

binding: no binding
B1: BCD133-03-021 (antibody, human IgG1, kappa, V domains shown)
VH: QVQLQESGGGLVQPGGSLRLSCAASGFTFSNYAMSWVRQAPGKGLEWVSAINSGGKSTNYADSVKGRFTISRDNAKNTLYLQMNSLRAEDTAVYYCADYATNYGVPYFGSWGQGTMVTVSS
VL: QSVLTQPPSVSAAPGQRVTISCSGSRSNIGSGYDVHWYQQLPGTAPKLLIYDDNNRPSGVPDRFSGSKSGTSASLAITGLQAEDEADYYCQSYDSSLSGHVVFGGGTKLTVLR
